Experimental data from PubChem BioAssay AID1347076 (National Center for Advancing Translational Sciences (NCATS), 2019).
Screen size: about 400,000 compounds; about 13,000 (3.2%) were called active. The inconclusive results got no clear call from the source; some entries with a clear call stand among them for comparison. Calls follow the shape of the dose curve; as a rule, active = well fitted cell-killing curve with a large enough effect; inconclusive = small, poorly fitted or top-dose-only effect, or effect the other way; inactive = flat fitted curve, though single readings scatter. Where the call is inconclusive, the potency comes from a doubtful curve fit.

Assay: qHTS assay for MDR1-selective chemotherapeutics: Primary screen using the drug-selected MDR subline cells KB-V1; also: nearly all actives have a fitted effect of over 60% in size
Conditions: KB-V1 MDR cells viability, CellTiter-Glo, 72 h; activity change, negative = cytotoxicity: at 46.1 µM (top of the series)
Procedure, shortened: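 KB-V1, DMEM (no phenol red) + 10% FBS; cpd pin-transferred, titration series; 72 h, 37 degrees C; CellTiter-Glo, luminescence. Data normalized, curve-fit.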
% is scaled to controls: 0 for no effect and ±100 for the full control effect; potency is read from the fitted curve at half-maximal effect.

Structure (SMILES) | Potency | activity change, negative = cytotoxicity
Cc1ccccc1-n1c(Cn2c(=O)sc3ccccc32)nnc1SCC(=O)Nc1nccs1 | inconclusive: 25.9 µM [rising, single point] | 
CC(C)(C)c1ccc(S(=O)(=O)N2CCSC2)cc1 | inconclusive: 23.1 µM [cytotoxic, single point] | 
Cc1nn(Cc2ccc(Cl)cc2Cl)c(C)c1NC(=O)NC12CC3CC(CC(C3)C1)C2 | active: 14.6 µM | 
CC(C)NC(=O)C1(C)CCN1Cc1cccc(Cl)c1 (stereo unspecified) | inactive | 
COc1ccc(CNn2c(-c3cccc(C)c3)nc3ccccc3c2=O)cc1OC | active: 23.1 µM | 
COc1cc(/C=N/NC(=O)CCn2cnc(-c3ccccc3)c2-c2ccccc2)ccc1O | inactive | 
Cc1cc2c(cc1C)C(c1ccccc1Br)CC(=O)N2 (stereo unspecified) | active: 23.1 µM | 
CCCCN(CCCC)CCCNC(=O)CC1Oc2ccc(C)cc2NC1=O (stereo unspecified) | inconclusive: 29.1 µM [cytotoxic, single point] | 
O=C1CC(O)(c2ccccc2)C(c2ccccc2)=C1c1ccccc1 (stereo unspecified) | active: 17.8 µM | 
O=C(NNC(=O)c1ccc(Br)s1)c1cccc(Cl)c1 | inactive | 
CCN1C(=O)CC(N2CCN(c3ccc(C(=O)c4ccccc4)cc3)CC2)C1=O (stereo unspecified) | inconclusive: 29.1 µM [cytotoxic, single point] | 
Cc1cccc(N2CCN(C(=O)C3CCN(c4ncnc5c4nc4n5CCCCC4)CC3)CC2)c1C | inactive | 
CC(=O)c1cc(-c2ccccc2)n(CC(=O)NCc2cccs2)c1C | inconclusive: 29.1 µM [cytotoxic, single point] | 
CCN(CC)c1ccc(-n2cc3c(=O)n(C)c(=O)n(C)c3c2)cc1 | inconclusive: 23.1 µM [cytotoxic, single point] | 
O=S(=O)(Nc1ccc(F)cc1F)c1ccc(-n2cccn2)cc1 | inactive | 
COC(=O)c1[nH]c2ccc(F)cc2c1NS(=O)(=O)c1ccc(OC)cc1 | active: 7.31 µM | 
CCC(=O)N1CCCC(C)(C(=O)Nc2nccc3cccnc23)C1 (stereo unspecified) | inactive | 
COc1ccc2c(c1)c1nc3n(c(=O)c1n2CC(=O)Nc1ccccc1)CCCS3 | inconclusive: 0.461 µM [rising, full curve, poor fit] | 
C[C@H]1CN([C@@H](C)CO)C(=O)CCCn2nncc2CO[C@@H]1CN(C)S(=O)(=O)c1cccc(C#N)c1 |  | inconclusive: 127%
CC(C)c1ccc(Nc2nc(NCc3ccco3)nc(N3CCOCC3)n2)cc1 | inconclusive: 13 µM [cytotoxic, single point] | 
Cc1cccc(C(=O)NCC(=O)N2CCN(S(=O)(=O)c3cc(C)ccc3C)CC2)c1 | inconclusive: 9.2 µM [cytotoxic, partial curve] | 

A second format for some results above:
Cc1cc2c(cc1C)C(c1ccccc1Br)CC(=O)N2 (stereo unspecified)
  Potency: active: 23.1 µM
CC(=O)c1cc(-c2ccccc2)n(CC(=O)NCc2cccs2)c1C
  Potency: inconclusive: 29.1 µM [cytotoxic, single point]
